The target in test [1] is T1, retinoschisin (human (endogenous in retina)) (UniProt O15537).
T1 sequence: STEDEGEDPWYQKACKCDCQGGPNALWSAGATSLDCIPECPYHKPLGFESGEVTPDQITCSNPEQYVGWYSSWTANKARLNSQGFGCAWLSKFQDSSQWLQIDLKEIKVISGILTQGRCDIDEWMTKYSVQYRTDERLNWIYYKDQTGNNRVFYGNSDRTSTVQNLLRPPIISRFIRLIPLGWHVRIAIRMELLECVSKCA
Description: co-IP.

The chains behind the UniProt entries cited, without tags or fusion partners. Residues count along the entry.
UniProt Q00604, residues 25-133: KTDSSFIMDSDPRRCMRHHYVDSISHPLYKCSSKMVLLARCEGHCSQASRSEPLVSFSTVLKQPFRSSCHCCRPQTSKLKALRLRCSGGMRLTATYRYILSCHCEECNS

Test [2] addresses norrin (human (endogenous in retina)) (UniProt Q00604). Description: co-IP.

Results are given in words; binding and its absence hold for the method and conditions named. In cells and extracts the contact can be indirect. Tags and fused reporters may be left off the sequences shown.

Take norrin (from UniProt Q00604 25-133): the binding entry in test [1] is on record as “no binding”.

B1: retinoschisin (protein, UniProt O15537 24-224)
chain: STEDEGEDPWYQKACKCDCQGGPNALWSAGATSLDCIPECPYHKPLGFESGEVTPDQITCSNPEQYVGWYSSWTANKARLNSQGFGCAWLSKFQDSSQWLQIDLKEIKVISGILTQGRCDIDEWMTKYSVQYRTDERLNWIYYKDQTGNNRVFYGNSDRTSTVQNLLRPPIISRFIRLIPLGWHVRIAIRMELLECVSKCA
With B1, in test [2], the binding entry is given as “no binding”.

Source of the values: publication doi:10.1101/312165.
